Results are given in words; binding and its absence hold for the method and conditions named. For some assays here: In cells and extracts the contact can be indirect. Some binding calls cover weakened binding; strength is not graded here. For some assays here: Sequences can lack the tags named with a protein.
B1: SHCBP1 (amino acids 291-562), for Co-IP (domain or fragment, UniProt Q8NEM2 291-562)
chain: EMEQLKQKLKLIENPLLRYVFGYQKNSNIQAKGVRSSGQKITHVVSSTMMAGLLRSLLTDRLCQEPGEEEREIQFHSDPLSAINACFEGDTVIVCPGHYVVHGTFSIADSIELEGYGLPDDIVIEKRGKGDTFVDCTGADIKISGIKFVQHDAVEGILIVHRGKTTLENCVLQCETTGVTVRTSAEFLMKNSDLYGAKGAGIEIYPGSQCTLSDNGIHHCKEGILIKDFLDEHYDIPKISMVNNIIHNNEGYGVVLVKPTIFSDLQENAEDG
B2: SHCBP1 (amino acids 355-562), for Co-IP (domain or fragment, UniProt Q8NEM2 355-562)
chain: EPGEEEREIQFHSDPLSAINACFEGDTVIVCPGHYVVHGTFSIADSIELEGYGLPDDIVIEKRGKGDTFVDCTGADIKISGIKFVQHDAVEGILIVHRGKTTLENCVLQCETTGVTVRTSAEFLMKNSDLYGAKGAGIEIYPGSQCTLSDNGIHHCKEGILIKDFLDEHYDIPKISMVNNIIHNNEGYGVVLVKPTIFSDLQENAEDG
B3: SHCBP1 (amino acids 64-210), for Co-IP (domain or fragment, UniProt Q8NEM2 64-210)
chain: KTFFPEIFQTNQLLFYERFRAYQDYILADCKASEVQEFTAEFLEKVLEPSGWRAVWHTNVFKVLVEITDVDFAALKAVVRLAEPYLCDSQVSTFTMECMKELLDLKEHRLPLQELWVVFDDSGVFDQTALAIEHVRFFYQNIWRSWD
B4: His-tagged SHCBP1 truncation (amino acids 1-562) (domain or fragment, UniProt Q8NEM2 1-562)
chain: MADGSLTGGGLEAAAMAPERMGWAVEQELASLEKGLFQDEDSCSDCSYRDKPGSSLQSFMPEGKTFFPEIFQTNQLLFYERFRAYQDYILADCKASEVQEFTAEFLEKVLEPSGWRAVWHTNVFKVLVEITDVDFAALKAVVRLAEPYLCDSQVSTFTMECMKELLDLKEHRLPLQELWVVFDDSGVFDQTALAIEHVRFFYQNIWRSWDEEEEDEYDYFVRCVEPRLRLHYDILEDRVPSGLIVDYHNLLSQCEESYRKFLNLRSSLSNCNSDSEQENISMVEGLKLYSEMEQLKQKLKLIENPLLRYVFGYQKNSNIQAKGVRSSGQKITHVVSSTMMAGLLRSLLTDRLCQEPGEEEREIQFHSDPLSAINACFEGDTVIVCPGHYVVHGTFSIADSIELEGYGLPDDIVIEKRGKGDTFVDCTGADIKISGIKFVQHDAVEGILIVHRGKTTLENCVLQCETTGVTVRTSAEFLMKNSDLYGAKGAGIEIYPGSQCTLSDNGIHHCKEGILIKDFLDEHYDIPKISMVNNIIHNNEGYGVVLVKPTIFSDLQENAEDG
B5: His-tagged SHCBP1 truncation (amino acids 64-562) (domain or fragment, UniProt Q8NEM2 64-562)
chain: KTFFPEIFQTNQLLFYERFRAYQDYILADCKASEVQEFTAEFLEKVLEPSGWRAVWHTNVFKVLVEITDVDFAALKAVVRLAEPYLCDSQVSTFTMECMKELLDLKEHRLPLQELWVVFDDSGVFDQTALAIEHVRFFYQNIWRSWDEEEEDEYDYFVRCVEPRLRLHYDILEDRVPSGLIVDYHNLLSQCEESYRKFLNLRSSLSNCNSDSEQENISMVEGLKLYSEMEQLKQKLKLIENPLLRYVFGYQKNSNIQAKGVRSSGQKITHVVSSTMMAGLLRSLLTDRLCQEPGEEEREIQFHSDPLSAINACFEGDTVIVCPGHYVVHGTFSIADSIELEGYGLPDDIVIEKRGKGDTFVDCTGADIKISGIKFVQHDAVEGILIVHRGKTTLENCVLQCETTGVTVRTSAEFLMKNSDLYGAKGAGIEIYPGSQCTLSDNGIHHCKEGILIKDFLDEHYDIPKISMVNNIIHNNEGYGVVLVKPTIFSDLQENAEDG
B6: His-tagged SHCBP1 truncation (amino acids 291-562) (domain or fragment, UniProt Q8NEM2 291-562)
chain: B1 chain
B7: His-tagged SHCBP1 truncation (amino acids 355-562) (domain or fragment, UniProt Q8NEM2 355-562)
chain: B2 chain
B8: His-tagged SHCBP1 truncation (amino acids 64-210) (domain or fragment, UniProt Q8NEM2 64-210)
chain: B3 chain
B9: SHCBP1 (amino acids 1-672), for Co-IP (protein, UniProt Q8NEM2 1-672)
chain: MADGSLTGGGLEAAAMAPERMGWAVEQELASLEKGLFQDEDSCSDCSYRDKPGSSLQSFMPEGKTFFPEIFQTNQLLFYERFRAYQDYILADCKASEVQEFTAEFLEKVLEPSGWRAVWHTNVFKVLVEITDVDFAALKAVVRLAEPYLCDSQVSTFTMECMKELLDLKEHRLPLQELWVVFDDSGVFDQTALAIEHVRFFYQNIWRSWDEEEEDEYDYFVRCVEPRLRLHYDILEDRVPSGLIVDYHNLLSQCEESYRKFLNLRSSLSNCNSDSEQENISMVEGLKLYSEMEQLKQKLKLIENPLLRYVFGYQKNSNIQAKGVRSSGQKITHVVSSTMMAGLLRSLLTDRLCQEPGEEEREIQFHSDPLSAINACFEGDTVIVCPGHYVVHGTFSIADSIELEGYGLPDDIVIEKRGKGDTFVDCTGADIKISGIKFVQHDAVEGILIVHRGKTTLENCVLQCETTGVTVRTSAEFLMKNSDLYGAKGAGIEIYPGSQCTLSDNGIHHCKEGILIKDFLDEHYDIPKISMVNNIIHNNEGYGVVLVKPTIFSDLQENAEDGTEENKALKIQTSGEPDVAERVDLEELIECATGKMELCARTDPSEQVEGNCEIVNELIAASTQKGQIKKKRLSELGITQADDNLMSQEMFVGIVGNQFKWNGKGSFGTFLF
B10: SHCBP1 (amino acids 1-562), for Co-IP (domain or fragment, UniProt Q8NEM2 1-562)
chain: B4 chain
B11: SHCBP1 (amino acids 64-562), for Co-IP (domain or fragment, UniProt Q8NEM2 64-562)
chain: B5 chain

By UniProt entry, the sequences of proteins in these tests, tags left out.
UniProt P33993: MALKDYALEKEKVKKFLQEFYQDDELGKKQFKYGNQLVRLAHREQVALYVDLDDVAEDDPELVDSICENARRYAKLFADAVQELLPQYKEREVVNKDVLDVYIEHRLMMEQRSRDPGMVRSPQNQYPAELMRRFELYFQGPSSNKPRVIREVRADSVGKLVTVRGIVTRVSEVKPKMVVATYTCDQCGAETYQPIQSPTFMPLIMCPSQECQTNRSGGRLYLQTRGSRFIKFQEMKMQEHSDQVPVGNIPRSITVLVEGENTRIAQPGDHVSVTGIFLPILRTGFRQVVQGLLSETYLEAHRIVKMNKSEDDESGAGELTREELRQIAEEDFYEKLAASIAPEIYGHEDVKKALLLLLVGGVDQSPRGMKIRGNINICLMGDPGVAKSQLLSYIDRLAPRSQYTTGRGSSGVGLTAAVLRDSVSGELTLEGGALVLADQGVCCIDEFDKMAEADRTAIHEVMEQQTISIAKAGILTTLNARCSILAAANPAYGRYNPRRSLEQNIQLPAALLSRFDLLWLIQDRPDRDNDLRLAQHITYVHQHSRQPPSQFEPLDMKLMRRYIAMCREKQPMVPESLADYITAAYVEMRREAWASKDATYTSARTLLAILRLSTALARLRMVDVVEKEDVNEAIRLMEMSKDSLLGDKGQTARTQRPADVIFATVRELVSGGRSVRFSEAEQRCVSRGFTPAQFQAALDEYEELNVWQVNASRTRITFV

Legend:
[1] = target: FLAG/HA-tagged MCM7 (full length) (UniProt P33993); test: co-IP; serial truncations of SHCBP1 and full-length MCM7 co-expressed in HEK293T cells (Fig. 4H)
GST-tagged MCM7 = GST-tagged MCM7 (UniProt P33993); test: pull-down; GST/His pull-down; purified GST-tagged and His-tagged proteins mixed in 0.5 ml binding buffer (50 mM Tris-HCl pH 7.4, 150 mM NaCl, 0.5% Triton X-100) with Glutathione Sepharose 4B beads and HisPur Ni-NTA Resin overnight at 4 °C; Western blot with GST and His antibodies; both purified

Binder	binding [1]	binding (GST-tagged MCM7)
B1	binds	–
B2	binds	–
B3	binds	–
B4	–	binds
B5	–	binds
B6	–	binds
B7	–	binds
B8	–	binds
B9	binds	–
B10	binds	–
B11	binds	–

Reference: article PMC12339988
